Reference: US20250009707A1, “METHODS OF INDUCING KETOSIS IN NON-HUMAN MAMMALS” (BOPZ Nutrition Ltd., priority 2023, published 2025)
For at least one compound, name, drawing or mass did not settle the structure.

Legend:
[1] = Serum/plasma BHB in fed canines, gastric gavage (Examples 2-4); assay type: in vivo, canines (beagles); details: for BHB concentrations compared to MCTs in the same canines (FIG. 4) / Increase in BHB concentration from baseline, compared to prior art methods: fed canines; for BHB concentrations compared to MCTs in the same canines (FIG. 4): 500 mg/kg; for Increase in BHB concentration from baseline, compared to prior art methods: doses of 125, 250 and 500 mg/kg
Protocol: Ketosis may be assessed quantitatively by measuring plasma beta-hydroxybutyrate (BHB) concentrations. Methods of measuring plasma BHB concentrations are known in the art. Non-limiting exemplary methods for measuring plasma BHB concentrations are provided in U.S. Pat. No. 10,562,839, which is hereby incorporated by reference in its entirety. Plasma BHB levels may be determined by a colorimetric enzymatic assay (Stanbio Laboratory 2440-058).
A group of 6 beagles was evaluated per tested compound of the disclosure. In a first period, the canines were administered 250 mg/kg of C8-BHB. In a second period, the canines were administered 500 mg/kg of C8-BHB. In a third period, the canines were administered MCT at a dose of 5.5%. In a fourth period, the canines were administered 125 mg/kg of C8-BHB. A washout period of 7 days was provided between each of the first, second, third, and fourth periods.
Following the tolerability results of Example 1, the canines were fed, and the compound was administered by gastric gavage in subsequent examples.
In each of the first, second, third, and fourth period, serum was sampled prior to administration of the compound, then at minute 15, 30, 45, 60, 75, 90, 120, 180, 240, and 300. Serum was sampled for BHB analysis.
If emesis occurred 60 minutes from administration of the compound, serum BHB content was not analyzed.
C8-BHB and C8×2-BD were selected as exemplary compounds of the disclosure for administration to canines according to the method of Example 2. Each exemplary compound was administered to 6 canines.
To further evaluate the potential of the compounds of the disclosure for inducing ketosis in canines, the compounds and MCTs were administered to the same canines, as described in Example 2.

[2] = Serum BHB in fasted canines, sublingual gavage (Example 1/5); assay type: in vivo, canines (beagles); details: 250 mg/kg

Row | Compound | BHB Cmax in individual canines compared to MCT (FIGS. 6A, 6B) ([1]; 250 mg/kg, four individual canines, printed 'when fasted') | BHB concentrations compared to MCTs in the same canines (FIG. 4) [1] | Increase in BHB concentration from baseline, compared to prior art methods [1] | BHB Cmax compared to MCTs (FIG. 7) [2]
1 | CCCCCCCC(=O)O[C@H](C)CC(=O)OCC [C8-BHB, octanoyl-ethyl-3-hydroxybutyrate] | two canines showed higher Cmax values | higher level than MCTs | significant increase | improved Cmax
2 | CCCCCCCC(=O)OCC[C@@H](C)OC(=O)CCCCCCC [C8×2-BD, bis-octanoyl-1,3-butanediol] |  | higher level than MCTs | significant increase | 
